At least one structure is not confirmed: it was looked up by name or label, or the drawing left a doubt.
Biological target: T1, IspH (LytB), E-4-hydroxy-3-methyl-but-2-enyl diphosphate reductase (Aquifex aeolicus, UniProt O67625)
T1 construct: inferred from Ni-NTA purification with imidazole elution; made in house; host or cells: E. coli BL-21(DE3)
Type: biochemical, A. aeolicus
Conditions: relative to parent or comparator compounds
Experimental: A. aeolicus IspH Protein Purification. BL-21(DE3) cells expressing IspH from A. aeolicus were grown in LB media supplemented with […] ampicillin at 37° C. until the OD600 reached 0.6. Cells were then induced with 200 μg/L anhydrotetracycline and then grown at 20° C. for 15 hours. Cells were harvested by centrifugation (9000 rpm, 8 min, 4° C.) and kept at −80° C. until use. Cell pellets were resuspended and lysed in B-PER (Thermo Scientific, Rockford, Ill.) protein extraction reagent for 1 hour at 4° C. and then centrifuged at […] at 4° C. for 15 minutes. The supernatant was applied to a Ni-NTA column equilibrated with 5 mM imidazole in pH 8.0 buffer containing 50 mM Tris HCl and 150 mM NaCl. After washing with 20 mM imidazole, protein was eluted with 100 mM imidazole. Fractions were collected and dialyzed in pH 8.0 buffer containing 50 mM Tris HCl, 150 mM NaCl, 5% glycerol, and 1 mM DTT, four times. […]
Protein Reconstitution. […] After 3 hours, an aliquot of the solution was centrifuged and a UV-vis spectrum recorded. […] The reconstituted protein was then concentrated by ultrafiltration, and the protein concentration was determined by using a Bio-Rad (Hercules, Calif.) protein assay kit. […]
For enzyme assays, various amounts of the test inhibitor ([…]) were added and the reactions were monitored at 732 nm. […]

By UniProt entry, the sequences of proteins in these tests, tags left out. Where a name states a change or a piece, a line headed by the entry shows the natural chain unless it says otherwise.
UniProt O67625: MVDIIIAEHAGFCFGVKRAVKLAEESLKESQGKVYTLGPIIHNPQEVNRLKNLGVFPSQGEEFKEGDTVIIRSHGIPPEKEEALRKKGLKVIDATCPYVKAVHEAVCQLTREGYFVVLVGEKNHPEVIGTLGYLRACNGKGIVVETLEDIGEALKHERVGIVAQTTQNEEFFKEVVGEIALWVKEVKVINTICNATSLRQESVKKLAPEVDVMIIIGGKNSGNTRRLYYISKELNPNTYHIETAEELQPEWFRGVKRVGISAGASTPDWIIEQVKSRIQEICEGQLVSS

Structure (SMILES) | activity in IspH inhibition (in words)
C#CCCCOP(=O)(O)OP(=O)(O)O [BPH-1093, Pent-4-ynyl diphosphate] | activity decreased
CC#CCOP(=O)(O)OP(=O)(O)O [BPH-1086, But-2-ynyl diphosphate] | decreased activity
